Measured values published in publication PMC9434705.
Results are given in words; binding and its absence hold for the method and conditions named. In cells and extracts the contact can be indirect. Some entries that bind do so weakly or less than the wild type. For some assays here: Where a sequence is shown, tags or fusion partners need not be part of it.

Protein sequences, listed by entry. Tags and fused reporters are not part of them. Lines headed by an entry give the natural chain unless they say otherwise; changes in a name come on top.
UniProt P15056: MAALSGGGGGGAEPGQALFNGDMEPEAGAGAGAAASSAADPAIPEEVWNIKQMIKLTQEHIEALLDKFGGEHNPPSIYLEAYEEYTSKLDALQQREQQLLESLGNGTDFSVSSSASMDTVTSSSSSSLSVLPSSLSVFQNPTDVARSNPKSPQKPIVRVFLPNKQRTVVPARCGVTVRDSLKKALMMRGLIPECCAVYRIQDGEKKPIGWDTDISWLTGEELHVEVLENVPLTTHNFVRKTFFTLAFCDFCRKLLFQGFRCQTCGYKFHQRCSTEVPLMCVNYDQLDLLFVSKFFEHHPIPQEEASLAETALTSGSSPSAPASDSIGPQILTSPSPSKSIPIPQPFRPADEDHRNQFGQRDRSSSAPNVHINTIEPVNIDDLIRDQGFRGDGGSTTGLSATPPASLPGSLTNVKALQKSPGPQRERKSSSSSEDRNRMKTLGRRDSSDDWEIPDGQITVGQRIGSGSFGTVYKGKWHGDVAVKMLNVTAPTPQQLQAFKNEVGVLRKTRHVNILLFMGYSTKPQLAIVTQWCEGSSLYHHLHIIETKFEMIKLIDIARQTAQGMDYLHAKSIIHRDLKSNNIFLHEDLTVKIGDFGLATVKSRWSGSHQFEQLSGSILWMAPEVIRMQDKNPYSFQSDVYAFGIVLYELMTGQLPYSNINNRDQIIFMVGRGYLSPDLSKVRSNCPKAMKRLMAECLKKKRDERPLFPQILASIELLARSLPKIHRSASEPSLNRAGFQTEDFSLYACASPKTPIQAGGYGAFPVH
UniProt O75592: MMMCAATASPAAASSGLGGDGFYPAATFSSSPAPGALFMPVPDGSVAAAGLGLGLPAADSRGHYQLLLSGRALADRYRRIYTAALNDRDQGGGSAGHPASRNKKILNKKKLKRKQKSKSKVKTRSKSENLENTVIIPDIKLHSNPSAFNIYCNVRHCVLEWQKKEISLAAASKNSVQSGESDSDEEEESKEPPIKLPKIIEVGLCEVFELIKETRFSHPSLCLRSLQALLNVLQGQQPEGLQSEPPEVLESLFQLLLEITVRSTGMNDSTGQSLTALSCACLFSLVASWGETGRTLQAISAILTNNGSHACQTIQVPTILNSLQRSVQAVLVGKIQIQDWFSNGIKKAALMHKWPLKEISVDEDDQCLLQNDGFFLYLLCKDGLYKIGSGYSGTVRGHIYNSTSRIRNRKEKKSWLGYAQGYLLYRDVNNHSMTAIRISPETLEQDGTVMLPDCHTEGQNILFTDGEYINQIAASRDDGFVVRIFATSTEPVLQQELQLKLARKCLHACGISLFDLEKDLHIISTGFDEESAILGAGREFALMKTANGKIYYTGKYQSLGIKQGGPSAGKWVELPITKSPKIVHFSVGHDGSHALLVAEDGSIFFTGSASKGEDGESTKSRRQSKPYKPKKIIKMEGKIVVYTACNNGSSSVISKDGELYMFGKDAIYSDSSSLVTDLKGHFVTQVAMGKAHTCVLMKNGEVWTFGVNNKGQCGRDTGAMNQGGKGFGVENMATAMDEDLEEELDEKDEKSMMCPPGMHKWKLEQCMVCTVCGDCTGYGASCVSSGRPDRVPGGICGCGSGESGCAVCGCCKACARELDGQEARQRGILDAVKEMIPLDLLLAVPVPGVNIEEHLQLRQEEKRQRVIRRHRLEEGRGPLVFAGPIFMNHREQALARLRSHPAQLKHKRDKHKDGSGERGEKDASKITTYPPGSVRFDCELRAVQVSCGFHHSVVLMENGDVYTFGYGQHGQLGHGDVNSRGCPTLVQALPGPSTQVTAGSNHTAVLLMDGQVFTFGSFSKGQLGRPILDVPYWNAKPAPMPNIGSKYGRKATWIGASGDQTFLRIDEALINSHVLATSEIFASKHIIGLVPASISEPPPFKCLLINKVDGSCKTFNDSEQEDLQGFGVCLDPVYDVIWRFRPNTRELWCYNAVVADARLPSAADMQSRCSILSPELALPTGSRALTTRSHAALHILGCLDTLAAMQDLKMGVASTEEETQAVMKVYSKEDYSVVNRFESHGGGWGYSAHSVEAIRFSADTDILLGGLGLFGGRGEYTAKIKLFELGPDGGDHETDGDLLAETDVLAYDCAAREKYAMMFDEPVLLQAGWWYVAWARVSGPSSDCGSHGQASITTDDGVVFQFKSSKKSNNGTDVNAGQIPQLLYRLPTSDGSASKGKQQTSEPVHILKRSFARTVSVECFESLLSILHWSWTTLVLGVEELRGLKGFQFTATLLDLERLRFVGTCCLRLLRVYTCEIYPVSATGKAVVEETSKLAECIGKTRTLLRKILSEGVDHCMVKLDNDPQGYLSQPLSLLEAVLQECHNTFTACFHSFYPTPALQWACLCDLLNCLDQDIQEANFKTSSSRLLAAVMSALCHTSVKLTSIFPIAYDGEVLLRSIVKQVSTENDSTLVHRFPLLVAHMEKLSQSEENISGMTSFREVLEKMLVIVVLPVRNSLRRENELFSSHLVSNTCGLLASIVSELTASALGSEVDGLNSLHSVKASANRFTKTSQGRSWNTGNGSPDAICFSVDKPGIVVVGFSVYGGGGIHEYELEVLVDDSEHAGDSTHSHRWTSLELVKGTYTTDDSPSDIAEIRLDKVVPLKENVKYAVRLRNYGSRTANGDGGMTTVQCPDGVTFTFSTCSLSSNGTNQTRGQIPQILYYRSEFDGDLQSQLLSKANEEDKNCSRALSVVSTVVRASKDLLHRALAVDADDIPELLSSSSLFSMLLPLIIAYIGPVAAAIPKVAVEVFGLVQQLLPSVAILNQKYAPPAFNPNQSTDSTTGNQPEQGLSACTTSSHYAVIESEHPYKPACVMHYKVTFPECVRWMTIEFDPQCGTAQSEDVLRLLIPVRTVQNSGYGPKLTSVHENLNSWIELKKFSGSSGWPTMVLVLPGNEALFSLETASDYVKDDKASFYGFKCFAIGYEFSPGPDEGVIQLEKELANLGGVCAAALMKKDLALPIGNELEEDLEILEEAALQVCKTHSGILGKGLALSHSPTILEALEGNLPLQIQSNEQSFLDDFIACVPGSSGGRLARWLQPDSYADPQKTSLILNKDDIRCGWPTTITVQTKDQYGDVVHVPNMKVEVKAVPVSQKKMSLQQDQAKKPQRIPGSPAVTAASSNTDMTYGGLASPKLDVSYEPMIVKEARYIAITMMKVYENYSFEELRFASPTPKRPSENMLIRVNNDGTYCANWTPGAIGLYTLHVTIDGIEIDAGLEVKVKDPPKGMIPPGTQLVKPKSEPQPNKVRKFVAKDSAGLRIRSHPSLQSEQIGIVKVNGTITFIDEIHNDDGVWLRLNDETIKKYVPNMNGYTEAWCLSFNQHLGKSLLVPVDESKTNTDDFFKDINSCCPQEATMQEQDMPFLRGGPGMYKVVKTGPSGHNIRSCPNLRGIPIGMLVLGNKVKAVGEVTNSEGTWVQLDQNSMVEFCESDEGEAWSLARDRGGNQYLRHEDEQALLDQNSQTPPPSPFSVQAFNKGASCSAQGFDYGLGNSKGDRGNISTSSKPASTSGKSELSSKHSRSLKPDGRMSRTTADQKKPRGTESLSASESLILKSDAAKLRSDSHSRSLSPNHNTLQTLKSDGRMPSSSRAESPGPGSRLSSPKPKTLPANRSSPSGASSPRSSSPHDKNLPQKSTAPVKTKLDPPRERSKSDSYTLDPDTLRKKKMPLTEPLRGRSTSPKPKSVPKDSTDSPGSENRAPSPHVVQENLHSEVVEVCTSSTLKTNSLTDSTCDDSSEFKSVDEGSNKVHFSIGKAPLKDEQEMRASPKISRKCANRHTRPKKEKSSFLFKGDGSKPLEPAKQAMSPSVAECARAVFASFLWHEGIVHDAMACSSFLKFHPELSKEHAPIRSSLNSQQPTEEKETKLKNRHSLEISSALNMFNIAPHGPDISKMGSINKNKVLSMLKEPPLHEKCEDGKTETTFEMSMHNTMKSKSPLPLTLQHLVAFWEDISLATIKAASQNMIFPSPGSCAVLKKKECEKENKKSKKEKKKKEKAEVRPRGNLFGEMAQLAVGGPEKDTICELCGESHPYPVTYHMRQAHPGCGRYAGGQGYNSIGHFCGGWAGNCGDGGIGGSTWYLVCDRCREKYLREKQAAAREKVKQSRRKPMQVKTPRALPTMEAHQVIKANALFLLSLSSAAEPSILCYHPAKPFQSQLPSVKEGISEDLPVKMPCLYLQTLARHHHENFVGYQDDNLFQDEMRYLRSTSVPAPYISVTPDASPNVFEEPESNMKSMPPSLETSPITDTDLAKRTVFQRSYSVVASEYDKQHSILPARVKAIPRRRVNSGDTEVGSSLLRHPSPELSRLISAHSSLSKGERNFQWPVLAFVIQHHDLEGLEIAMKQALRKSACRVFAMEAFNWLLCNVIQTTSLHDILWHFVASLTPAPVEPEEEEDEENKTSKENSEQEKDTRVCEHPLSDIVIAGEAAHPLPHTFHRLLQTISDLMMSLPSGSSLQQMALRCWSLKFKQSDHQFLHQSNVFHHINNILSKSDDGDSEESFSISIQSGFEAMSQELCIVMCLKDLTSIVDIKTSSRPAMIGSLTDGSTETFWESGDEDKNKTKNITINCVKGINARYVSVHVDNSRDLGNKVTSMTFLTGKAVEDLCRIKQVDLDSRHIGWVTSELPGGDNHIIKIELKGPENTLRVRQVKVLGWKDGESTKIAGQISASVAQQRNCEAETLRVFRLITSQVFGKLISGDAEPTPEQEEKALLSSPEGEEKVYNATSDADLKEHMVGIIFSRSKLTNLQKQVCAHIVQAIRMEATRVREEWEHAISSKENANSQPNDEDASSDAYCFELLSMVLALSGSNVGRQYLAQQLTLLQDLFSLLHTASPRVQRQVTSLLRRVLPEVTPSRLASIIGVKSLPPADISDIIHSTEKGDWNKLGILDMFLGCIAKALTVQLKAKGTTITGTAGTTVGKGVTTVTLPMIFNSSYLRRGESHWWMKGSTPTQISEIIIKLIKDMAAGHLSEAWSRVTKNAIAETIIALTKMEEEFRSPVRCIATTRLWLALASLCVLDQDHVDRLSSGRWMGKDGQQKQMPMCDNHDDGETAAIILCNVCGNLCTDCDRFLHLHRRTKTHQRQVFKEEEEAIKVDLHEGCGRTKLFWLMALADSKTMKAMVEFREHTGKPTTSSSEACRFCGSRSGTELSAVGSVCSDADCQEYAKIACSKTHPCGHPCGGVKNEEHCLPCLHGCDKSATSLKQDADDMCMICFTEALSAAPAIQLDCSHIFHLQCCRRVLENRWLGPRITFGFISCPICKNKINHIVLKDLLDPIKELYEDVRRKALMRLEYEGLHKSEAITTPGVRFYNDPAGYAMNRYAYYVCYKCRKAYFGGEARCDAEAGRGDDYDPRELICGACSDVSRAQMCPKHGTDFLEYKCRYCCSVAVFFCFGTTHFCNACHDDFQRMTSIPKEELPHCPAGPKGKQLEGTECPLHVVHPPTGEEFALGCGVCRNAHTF

Columns and labels:
[1] = molecular target: T1, MST2 (endogenous) (human (endogenous in HeLa, A375, SK-Mel28, WM-793, SK-Mel2)) (UniProt Q13188); test: co-IP; endogenous MST2 or BRAF^V600E (mutant specific antibody) precipitated from lysates of A375, SK-Mel28, WM-793 and SK-Mel2 cells, untreated or treated with PLX4032; in A375 also BRAF precipitated after dabrafenib, encorafenib, sorafenib or TAK-632 (Fig S1A); blots for BRAF and MST2
T1 sequence: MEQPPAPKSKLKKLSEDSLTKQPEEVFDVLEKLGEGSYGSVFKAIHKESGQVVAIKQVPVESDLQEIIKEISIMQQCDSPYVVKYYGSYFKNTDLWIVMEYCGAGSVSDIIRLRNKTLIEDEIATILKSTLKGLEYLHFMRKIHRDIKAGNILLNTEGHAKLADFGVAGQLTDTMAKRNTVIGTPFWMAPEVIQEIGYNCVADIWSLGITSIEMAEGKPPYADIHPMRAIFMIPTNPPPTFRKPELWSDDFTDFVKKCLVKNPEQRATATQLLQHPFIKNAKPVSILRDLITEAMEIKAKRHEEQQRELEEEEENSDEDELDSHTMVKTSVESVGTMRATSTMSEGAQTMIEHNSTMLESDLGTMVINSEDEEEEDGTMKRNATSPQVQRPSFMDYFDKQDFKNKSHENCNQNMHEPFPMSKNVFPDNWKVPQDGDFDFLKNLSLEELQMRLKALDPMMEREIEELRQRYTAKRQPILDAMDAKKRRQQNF

[2] = molecular target: T2, FLAG-MST2 (UniProt Q13188); test: co-IP; FLAG-MST2 precipitated with FLAG beads from parental and resistant cells 48 h after transfection; blot for endogenous MYCBP2
T2 sequence: T1 sequence

| binding [1] | binding [2] | Substance |
| --- | --- | --- |
| binds | – | BRAF^V600E (endogenous, mutant BRAF melanoma cells) (from UniProt P15056 1-766) |
| – | binds | MYCBP2 (endogenous) (from UniProt O75592 1-4678) |
